Results are given in words; binding and its absence hold for the method and conditions named. Some results given as binding are weak or reduced against the parent protein; the word gives no strength.
Target: MsbA (ATP-binding cassette transporter MsbA, Escherichia coli) (Escherichia coli) (UniProt P60752)
Experiment: cryo-EM structure; 8 mg/mL copper-loaded MsbA, apo or trapped with ADP-vanadate, in 200 mM NaCl, 20 mM HEPES pH 7.4, 2x CMC C10E5, two-fold molar excess of KDL; C2 symmetry imposed (3.6 Å trapped; 3.88 Å open, 4.06 Å with C1); both purified

binding: binds
B1: MsbA (ATP-binding cassette transporter MsbA, Escherichia coli) (natural protein)
chain: HNDKDLSTWQTFRRLWPTIAPFKAGLIVAGVALILNAASDTFMLSLLKPLLDDGFGKTDRSVLVWMPLVVIGLMILRGITSYVSSYCISWVSGKVVMTMRRRLFGHMMGMPVSFFDKQSTGTLLSRITYDSEQVASSSSGALITVVREGASIIGLFIMMFYYSWQLSIILIVLAPIVSIAIRVVSKRFRNISKNMQNTMGQVTTSAEQMLKGHKEVLIFGGQEVETKRFDKVSNRMRLQGMKMVSASSISDPIIQLIASLALAFVLYAASFPSVMDSLTAGTITVVFSSMIALMRPLKSLTNVNAQFQRGMAACQTLFTILDSEQEKDEGKRVIERATGDVEFRNVTFTYPGRDVPALRNINLKIPAGKTVALVGRSGSGKSTIASLITRFYDIDEGEILMDGHDLREYTLASLRNQVALVSQNVHLFNDTVANNIAYARTEQYSREQIEEAARMAYAMDFINKMDNGLDTVIGENGVLLSGGQRQRIAIARALLRDSPILILDEATSALDTESERAIQAALDELQKNRTSLVIAHRLSTIEKADEIVVVEDGVIVERGTHNDLLEHRGVYAQLHKMQFGQ
notes: MsbA, Escherichia coli, UniProt P60752; msbA gene amplified from E. coli genomic DNA into pCDF-1b (pCDF-MsbA), N-terminal TEV-cleavable His6; Homodimer; co-purifies with copper(II), one site per subunit at the N-terminus (Met-His-Asn-Asp); For cryo-EM it was loaded with copper(II), apo or trapped with ADP-vanadate, with KDL; also called wild-type MsbA; the transporter; source: E. coli (DE3) …
